Source: PubChem BioAssay AID488835 (Broad Institute, 2010)
Among all 1,400 compounds or so, about 140 (10%) were called active.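 How the source made its calls: active means Half-maximal inhibitory dose from the fit at or below ten times the top valid tested dose; inconclusive means Invalid fit, or flat curve showing 30 to 70% inhibition; inactive means the rest.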 Only a part is listed here, and it is no random draw. Potency and affinity values are given separately.

Protein sequences, listed by entry. Tags and fused reporters are not part of them. Residues count along the entry.
UniProt Q9H3R0, 1-420 limits assumed: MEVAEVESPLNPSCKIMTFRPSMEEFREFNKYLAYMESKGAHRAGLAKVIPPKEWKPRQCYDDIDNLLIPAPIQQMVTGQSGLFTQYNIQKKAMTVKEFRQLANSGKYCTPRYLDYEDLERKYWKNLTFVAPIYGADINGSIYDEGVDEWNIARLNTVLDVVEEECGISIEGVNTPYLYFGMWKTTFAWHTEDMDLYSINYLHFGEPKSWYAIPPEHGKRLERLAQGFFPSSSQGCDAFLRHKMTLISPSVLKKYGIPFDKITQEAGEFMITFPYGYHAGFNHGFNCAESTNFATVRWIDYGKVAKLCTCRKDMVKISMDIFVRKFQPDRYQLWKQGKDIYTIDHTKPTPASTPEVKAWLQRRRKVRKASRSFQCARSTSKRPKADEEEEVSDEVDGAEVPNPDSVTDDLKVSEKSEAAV

Target: Lysine-specific demethylase 4C (Homo sapiens) (UniProt Q9H3R0)
Assay: GASC-1 (JMJD2C) histone demethylase inhibitors, dose response, biochemical, DELFIA europium, cherry-picked samples (AID 488835);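 further: signal is the H3K9me2 demethylation product detected by a dimethyl-specific antibody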
Settings: GST-JMJD2C(1-420), H3K9me3 demethylation; at 6 µM (top of the series) unless noted

Activity change, negative = inhibition, inactive:
COC(=O)[C@]1(C)N[C@H](CN(C)C(=O)Nc2ccc(C)cc2)[C@@H]2C(=O)N(Cc3ccccc3)C(=O)[C@@H]21 3.23%
Cc1ccc(NC(=O)c2ccc(OC(=O)CCN3C(=O)c4ccccc4C3=O)cc2)cc1 -0.588%
Cn1c(SCC(=O)Nc2cc(S(=O)(=O)N3CCOCC3)ccc2N2CCOCC2)nnc1-c1ccncc1 -0.937%
Cc1cc(N(C)C)cc(C)[n+]1[O-] 9.45%
CCOC(=O)N1CCc2c(sc3nc4n(c(=O)c23)N=C(C)CS4)C1 -0.154%
C#CCOCCOCCOCCNc1nc(N2CCN(C(=O)[C@H](CCCCN)n3cc([C@@H](N)[C@H](C)CC)nn3)CC2)nc(N2CCN(C(=O)[C@H](CCC(=O)O)n3cc([C@@H](N)CCSC)nn3)CC2)n1 3.89%
C[C@@H]1CN([C@H](C)CO)C(=O)c2cccc(NC(=O)c3ccncc3)c2O[C@@H]1CN(C)Cc1ccc(C(=O)O)cc1 -5.5%
CC(=O)Nc1n[nH]c(-c2ccc(C)cc2)c1C 6.4%
CC(=O)N1CCN(c2ccc(NC(=O)c3ccc4ccccc4c3)cc2)CC1 3.73%
CCS(=O)(=O)N1CCCC(C(=O)NCCCN2CCCC2=O)C1 (configuration not stated) 6.63%
C=CCn1c(N2CCCCCC2)nc2c1c(=O)[nH]c(=O)n2C -2.76%
Cc1occc1-c1nnc(SCC(=O)Nc2ccccc2)n1C(C)c1ccccc1 (configuration not stated) 4.21% [at 1.6 µM]
C[C@@]12C(=O)Nc3ccc(Br)cc3C(=O)N1[C@H]1c3ccccc3OC[C@@H]1[C@@H]2c1ccccc1 0.725%
Cc1cc(C)n2nc(C(=O)N3CCCC(Nc4ccc(F)c(F)c4)C3)cc2n1 (configuration not stated) 3.27%
CC(C)(C)c1ccc(C(=O)NNC(=O)c2cccc(Br)c2)cc1 3.94%
COC(=O)NNC(=S)Nc1cc(OC)ccc1OC 4.86%
CCC(CC)NC(=O)CSc1nnc(-c2ccc(OC)cc2)n1C(C)C 3.58%
O=c1n(Cc2ccccc2)c2cc(Cl)cnc2n1Cc1ccccc1 -12.2%
C[C@@]12C(=O)Nc3cc(F)c(F)cc3C(=O)N1[C@H]1c3cc(Cl)ccc3OC[C@@H]1[C@@H]2c1ccccc1 3.39%
C[C@H](CO)N1C[C@H](C)[C@@H](CN(C)Cc2ccncc2)Oc2c(NC(=O)Cc3ccccc3)cccc2C1=O -3.32%
CC#CCOC(=O)c1c(C)nc2sc3c(c2c1N)CCC(O)C3 (configuration not stated) 8.15%
CC[C@@]1(C(=O)OC)N[C@H](CN(C)C(=O)Nc2ccc(C)cc2)[C@@H]2C(=O)N(C)C(=O)[C@@H]21 -3.45%
Cn1c(=O)c2c(nc(NC3CCCCC3)n2Cc2ccccc2)n(C)c1=O 1.97%
C=CCOc1ccc(C(=O)NC2CCCCC2)cc1 0.127%
O=C(c1cccc(-n2cccc2)c1)N1CCN(S(=O)(=O)c2c(F)cccc2F)CC1 -0.611%
CCOC(=O)C1CCN(S(=O)(=O)c2cccc(-c3cn4cc(Cl)ccc4n3)c2)CC1 4.89%
C[C@@H]1CC[C@]2(C(=O)O[C@@H]3O[C@H](CO)[C@@H](O)[C@H](O)[C@H]3O)CC[C@]3(C)C(=CCC4[C@@]5(C)C[C@@H](O)[C@H](O)[C@@](C)(C(=O)O[C@@H]6[C@H](O)C[C@@]7(C)C(CC[C@]8(C)C7CC=C7[C@H]9[C@](C(=O)O[C@@H]%10O[C@H](CO)[C@@H](O)[C@H](O)[C@H]%10O)(CC[C@@H](C)[C@@]9(C)O)CC[C@]78C)[C@@]6(CO)C(=O)O)C5CC[C@]43C)[C@@H]2[C@]1(C)O (some centres not stated) 8%
Cc1ccc(C(=O)NCCCCNC(=O)c2ccc(C)o2)o1 3.59%
Cc1cccc2c1-c1sc(C(=O)Nc3cccc([N+](=O)[O-])c3C)cc1CO2 13.5%
Cn1c2ccccc2c2c(C(=O)N3CCN(c4ccccn4)CC3)cn(C3CCCC3)c(=O)c21 4.51%
Cn1cccc1-c1nc2ccc(NC(=O)c3cccs3)cc2[nH]1 -5.68%
CN(C(=O)c1ccccn1)c1nnc(-c2ccccn2)s1 4.97%
COC(=O)CNS(=O)(=O)c1ccc(C)cc1 2.24%
O=C(/C=C/c1cc([N+](=O)[O-])ccc1OC(F)F)Nc1ccc(OC(F)F)cc1 3.39%
COC(=O)C1=C(C(=O)OC)SC(=C2C(=S)C(C)(C)N(C(=O)C(C)C)c3ccccc32)S1 5.45%
CCOc1ccc(-c2nc(CSCC(=O)NC3CCCc4ccccc43)c(C)o2)cc1 (configuration not stated) -1.1%
S=c1[nH]nc(COc2ccccc2)n1/N=C/c1ccccn1 -9.09%
COCCCn1c(SCC(=O)NCc2ccco2)nc2sc3c(c2c1=O)CCC3 -1.17%
CN(c1cccc(Cl)c1)S(=O)(=O)c1cccc(C(=O)Nc2ccc3c(c2)CCC3)c1 0.113%
C#CCOCCOCCOCCNc1nc(N2CCN(C(=O)[C@H](CCC(=O)O)n3cc([C@@H](N)CCCCN)nn3)CC2)nc(N2CCN(C(=O)[C@H](CCC(=O)O)n3cc([C@@H](N)CCCCN)nn3)CC2)n1 -1.73%
O=c1ccc(=O)n2n1CC(O)C2 4.28%
Cc1cccc(NC(=O)C2CCN(S(=O)(=O)c3cccc4nsnc34)CC2)n1 1.5%
Cc1cccc(NS(=O)(=O)c2cccc3nsnc23)c1 1.48%
COc1ccc(/C(C)=N/Nc2nccnc2Cl)cc1 -1.3%
Cc1cc(=O)[nH]c(CN2CCOCC2)n1 8.68%
COc1ccc(OC)c(/C=C2\SC(=S)N(Cc3cccnc3)C2=O)c1 -4.57%
CN(C(=O)COc1ccccc1)c1nnc(-c2ccncc2)s1 9.89%
C[C@H](CO)N1C[C@H](C)[C@@H](CN(C)S(=O)(=O)c2ccccc2)Oc2c(NC(=O)CCC(F)(F)F)cccc2C1=O -2.36%
Cn1c(=O)n(C)c2cc(S(=O)(=O)N3CCOCC3)ccc21 13.3%
Cc1cnn(C(=O)c2ccccc2Br)c1 5.52%
CCOC(=O)Cc1csc(NC(=O)COc2cccc(C)c2)n1 6.84%
COc1ccc(CCN2C(=O)CC(NNC(=O)c3ccccc3Br)C2=O)cc1 (configuration not stated) 7.12%
CNC[C@H]1Oc2c(NS(=O)(=O)c3cccs3)cccc2C(=O)N([C@H](C)CO)C[C@@H]1C -0.911%
CC(OC(=O)c1ccc([N+](=O)[O-])s1)C(=O)Nc1ncc(Cl)cc1Cl (configuration not stated) -0.534%
Cc1ccccc1CN1C(=O)C(O)(CC(=O)c2ccncc2)c2ccccc21 (configuration not stated) 9.16%
CS(=O)(=O)NC1c2cccc3cccc(c23)C1Sc1nncn1/N=C/c1ccco1 (configuration not stated) 4.42%
COc1cccc(C(c2nnnn2CCc2ccccc2)N2CCN(c3ccccc3)CC2)c1OC (configuration not stated) 6.18%
CC1CCN(C(=O)CSc2nnc(CNC(=O)c3c(F)cccc3F)o2)CC1 6.12%
CCn1c(=O)c(C(=O)CN2c3ccccc3CC2C)c(N)n(Cc2ccccc2)c1=O (configuration not stated) -1.24%
Cn1c2ccccc2c(=O)c2ccc(NCCc3cccs3)cc21 -2.85%
CC(=O)Nc1ccc2c(c1)C(C)(C)C(C)N2C (configuration not stated) 2.1%
Cc1ccc(CNC(=O)Cc2ccc(-c3ccccc3)cc2)cc1 -0.123%
Fc1ccccc1OCCCCn1cncn1 9.01%
N#CC(C(=O)NCCc1ccccc1)c1nc2ccccc2nc1N1CCOCC1 (configuration not stated) 2.32%
CCOC(=O)c1sc(Nc2nc(OC)cc(OC)n2)nc1C 1.39%
CCOc1ccccc1Nc1ncnc2ccccc12 6.06%
CCOc1ccc2nc(NC(=O)CS(=O)(=O)c3ccc(C)cc3)sc2c1 4.69%
COc1cc(Cl)c(NC2=CC(=O)C(=O)c3ccccc32)c(OC)c1 -0.945%
Nc1c(C(=O)OCC2CCCO2)c2nc3ccccc3nc2n1C1CCCC1 (configuration not stated) -6.76%
CCOC(=O)c1cc2n(n1)C(C(F)(F)F)CC(C)N2 (configuration not stated) -3.7%
COC(=O)CCC(=O)N1CCOCCOCCN(C(=O)CCC(=O)OC)CCOCCOCC1 5.88%
O=C(NCc1nnc(SCC(=O)N2CCCC2)o1)c1c(F)cccc1Cl 7.98%
O=C(Cn1c(NCCCO)nc2ccccc21)c1ccc(Br)cc1 3.75%
CCN(C[C@H]1N[C@@](C)(C(=O)OC)[C@H]2C(=O)N(C)C(=O)[C@@H]12)C(=O)Nc1ccccc1 6.53%
CCc1ncc(C)[nH]1 -5.59%
COC(=O)c1ccc(-c2sc3nc(N4CCOCC4)c4c(c3c2N)CC(C)(C)OC4)o1 5.56% [at 1.6 µM]
COc1ccccc1CCNC(=O)c1ccc(C)o1 8.21%
Cc1ccc(CNC(=O)[C@@H](NC(=O)Cc2ccccc2)C(C)C)cc1 0.0758%
Cn1nc(N)nc1N1CCN(c2ccc(F)cc2)CC1 0.933%
Cc1noc(C)c1NC(=O)N(C)C[C@H]1Oc2ccc(NS(=O)(=O)c3ccccc3)cc2C(=O)N([C@H](C)CO)C[C@@H]1C 3.26%
Cc1ccc(Nc2nnc(SCC(=O)N(C)C3CCS(=O)(=O)C3)s2)cc1 (configuration not stated) 2.6%
CC(C)C[C@@H]1CN=C(N)N1C[C@@H]1CCCN1C[C@H](C)N1C[C@@H](Cc2ccccc2)N(CCc2ccc(Cl)c(Cl)c2)C1=N 8.72%

Among those listed so far, 9 contain a thiophene ring, fused or not.
Activity change, negative = inhibition, inactive:
CCOC(=O)N1CCc2c(sc3nc4n(c(=O)c23)N=C(C)CS4)C1 -0.154%
CC#CCOC(=O)c1c(C)nc2sc3c(c2c1N)CCC(O)C3 (configuration not stated) 8.15%
Cc1cccc2c1-c1sc(C(=O)Nc3cccc([N+](=O)[O-])c3C)cc1CO2 13.5%
Cn1cccc1-c1nc2ccc(NC(=O)c3cccs3)cc2[nH]1 -5.68%
COCCCn1c(SCC(=O)NCc2ccco2)nc2sc3c(c2c1=O)CCC3 -1.17%
CNC[C@H]1Oc2c(NS(=O)(=O)c3cccs3)cccc2C(=O)N([C@H](C)CO)C[C@@H]1C -0.911%
CC(OC(=O)c1ccc([N+](=O)[O-])s1)C(=O)Nc1ncc(Cl)cc1Cl (configuration not stated) -0.534%
Cn1c2ccccc2c(=O)c2ccc(NCCc3cccs3)cc21 -2.85%
COC(=O)c1ccc(-c2sc3nc(N4CCOCC4)c4c(c3c2N)CC(C)(C)OC4)o1 5.56% [at 1.6 µM]

Part of the list above in order of number of heavy atoms, smallest number first:
Activity change, negative = inhibition, inactive:
Cn1nc(N)nc1N1CCN(c2ccc(F)cc2)CC1 0.933%
CCOC(=O)Cc1csc(NC(=O)COc2cccc(C)c2)n1 6.84%
O=c1n(Cc2ccccc2)c2cc(Cl)cnc2n1Cc1ccccc1 -12.2%
